Test results as given in patent US10721933B2, “Pesticidally active semi-carbazones and thiosemicarbazones derivatives” (Syngenta Participations AG, priority 2015, dated 2020).
Some of these results come from one statement about several compounds together.

Key:
Format in all cases: in vivo
Diabrotica balteata = Diabrotica balteata (corn root worm), sprayed maize sprouts, L2 larvae; conditions: application rate of 200 ppm; 4 days after infestation; in comparison to untreated samples
Procedure: Example B3: Diabrotica balteata (Corn Root Worm)
Maize sprouts, placed on an agar layer in 24-well microtiter plates were treated with aqueous test solutions prepared from 10,000 ppm DMSO stock solutions by spraying. After drying, the plates were infested with L2 larvae (6 to 10 per well). The samples were assessed for mortality and growth inhibition in comparison to untreated samples 4 days after infestation.

Plutella xylostella = Plutella xylostella (diamond back moth), treated artificial diet, L2 larvae; conditions: application rate of 200 ppm; 5 days after infestation; in comparison to untreated samples
Procedure: Example B2: Plutella xylostella (Diamond Back Moth)
24-well microtiter plates with artificial diet were treated with aqueous test solutions prepared from 10,000 ppm DMSO stock solutions by pipetting. After drying, the plates were infested with L2 larvae (10 to 15 per well). The samples were assessed for mortality and growth inhibition in comparison to untreated samples 5 days after infestation.

Spodoptera littoralis = Spodoptera littoralis (Egyptian cotton leaf worm), sprayed cotton leaf discs, L1 larvae; conditions: application rate of 200 ppm; 3 days after infestation; in comparison to untreated samples
Procedure: Example B1: Spodoptera littoralis (Egyptian Cotton Leaf Worm)
Cotton leaf discs were placed on agar in 24-well microtiter plates and sprayed with aqueous test solutions prepared from 10,000 ppm DMSO stock solutions. After drying, the leaf discs were infested with five L1 larvae. The samples were assessed for mortality, anti-feedant effect, and growth inhibition in comparison to untreated samples 3 days after infestation. Control of Spodoptera littoralis by a test sample is when at least one of mortality, anti-feedant effect, and growth inhibition is higher than the untreated sample.

1-(2-isopropylphenyl)-3-[[2-[4-(trifluoromethoxy)phenoxy]-1,3-benzothiazol-6-yl]methyleneamino]thiourea [Compound P3]
at least 80%: effect in at least one of the two categories (mortality or growth inhibition) (Diabrotica balteata) | effect in at least one of the two categories (mortality or growth inhibition) (Plutella xylostella) | control (at least one of mortality, anti-feedant effect, growth inhibition) (Spodoptera littoralis)
